Experimental data from article PMC6482195.
No constants are given. Whether binding was seen depends on the method and setting. For some assays here: Binding calls can cover weak binding; strength is not graded here.

How the values were obtained:
[1] = molecular target: PaPYL4.1 (Phelipanche aegyptiaca); test: two-hybrid; PaPYL4 alleles with complete open reading frames against seven co-receptors, yeast Y190; plates with mock or a range of ABA concentrations (0.1–10 µM); X-Gal staining (Fig. S2)
[2] = molecular target: PaPYL4.2 (Phelipanche aegyptiaca); test: as above

B1: ABI2^G168D (enzyme, UniProt O04719 1-423)
chain: MDEVSPAVAVPFRPFTDPHAGLRGYCNGESRVTLPESSCSGDGAMKDSSFEINTRQDSLTSSSSAMAGVDISAGDEINGSDEFDPRSMNQSEKKVLSRTESRSLFEFKCVPLYGVTSICGRRPEMEDSVSTIPRFLQVSSSSLLDGRVTNGFNPHLSAHFFGVYDGHDGSQVANYCRERMHLALTEEIVKEKPEFCDGDTWQEKWKKALFNSFMRVDSEIETVAHAPETVGSTSVVAVVFPTHIFVANCGDSRAVLCRGKTPLALSVDHKPDRDDEAARIEAAGGKVIRWNGARVFGVLAMSRSIGDRYLKPSVIPDPEVTSVRRVKEDDCLILASDGLWDVMTNEEVCDLARKRILLWHKKNAMAGEALLPAEKRGEGKDPAAMSAAEYLSKMALQKGSKDNISVVVVDLKGIRKFKSKSLN
- binding [1]: binds
- binding [2]: no binding
